Assay results taken from publication PMC2440817.
Substitutions are numbered along the chain they refer to. Results are given in words; binding and its absence hold for the method and conditions named. In cells and extracts the contact can be indirect. For some assays here: A result given as binding can be weak or reduced; the word gives no strength.

Amino acid sequences for entries named in this document (tags omitted).
UniProt Q9JIF0: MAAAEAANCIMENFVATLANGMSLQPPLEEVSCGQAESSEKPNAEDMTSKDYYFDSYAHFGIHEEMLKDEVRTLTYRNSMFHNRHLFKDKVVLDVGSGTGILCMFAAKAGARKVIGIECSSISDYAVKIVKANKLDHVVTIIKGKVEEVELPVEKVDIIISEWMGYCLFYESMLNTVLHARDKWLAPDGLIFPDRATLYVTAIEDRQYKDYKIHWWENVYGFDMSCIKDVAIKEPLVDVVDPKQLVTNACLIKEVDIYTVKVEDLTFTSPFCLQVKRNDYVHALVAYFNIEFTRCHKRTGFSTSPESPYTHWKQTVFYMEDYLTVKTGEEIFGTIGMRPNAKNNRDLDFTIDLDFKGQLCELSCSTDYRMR

What was measured:
[1] = biological target: T1, Receptor interacting protein 140 (RIP140), endogenous (mouse (endogenous in 3T3-L1)) (UniProt Q8CBD1); assay: co-IP; nuclear fraction of differentiating adipocyte cultures, time course of differentiation
T1 sequence: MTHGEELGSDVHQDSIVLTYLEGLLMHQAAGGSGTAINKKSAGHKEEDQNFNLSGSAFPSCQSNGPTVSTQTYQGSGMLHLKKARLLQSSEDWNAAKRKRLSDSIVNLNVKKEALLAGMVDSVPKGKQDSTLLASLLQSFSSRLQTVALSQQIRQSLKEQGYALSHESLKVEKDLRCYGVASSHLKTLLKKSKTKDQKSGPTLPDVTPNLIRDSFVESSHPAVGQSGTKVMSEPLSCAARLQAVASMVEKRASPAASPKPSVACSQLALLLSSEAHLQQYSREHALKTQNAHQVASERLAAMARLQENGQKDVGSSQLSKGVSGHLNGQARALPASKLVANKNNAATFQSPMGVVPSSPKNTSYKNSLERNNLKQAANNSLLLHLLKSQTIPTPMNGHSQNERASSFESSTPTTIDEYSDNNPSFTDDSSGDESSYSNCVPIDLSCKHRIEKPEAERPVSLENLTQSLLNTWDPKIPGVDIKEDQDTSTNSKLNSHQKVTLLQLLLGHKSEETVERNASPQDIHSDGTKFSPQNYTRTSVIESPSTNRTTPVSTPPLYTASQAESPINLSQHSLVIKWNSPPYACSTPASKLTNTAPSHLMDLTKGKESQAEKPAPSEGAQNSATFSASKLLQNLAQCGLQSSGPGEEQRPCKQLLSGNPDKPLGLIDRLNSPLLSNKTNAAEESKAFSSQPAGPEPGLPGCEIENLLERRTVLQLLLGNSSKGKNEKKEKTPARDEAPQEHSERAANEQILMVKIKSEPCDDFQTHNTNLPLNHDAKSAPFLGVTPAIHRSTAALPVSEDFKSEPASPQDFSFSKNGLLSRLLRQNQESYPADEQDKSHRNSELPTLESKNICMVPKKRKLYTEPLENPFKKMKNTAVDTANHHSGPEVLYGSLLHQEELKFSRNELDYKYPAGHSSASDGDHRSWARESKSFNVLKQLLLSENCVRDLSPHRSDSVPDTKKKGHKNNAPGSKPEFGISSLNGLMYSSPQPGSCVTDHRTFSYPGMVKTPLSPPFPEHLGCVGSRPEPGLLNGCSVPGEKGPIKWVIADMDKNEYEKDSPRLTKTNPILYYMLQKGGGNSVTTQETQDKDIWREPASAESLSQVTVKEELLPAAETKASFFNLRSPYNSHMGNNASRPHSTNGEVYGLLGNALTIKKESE

[2] = biological target: T1, Receptor interacting protein 140 (RIP140), endogenous (mouse (endogenous in 3T3-L1)); assay: co-IP; endogenous proteins in differentiating adipocyte cultures after siRNA knockdown of PKCε
[3] = biological target: T1, Receptor interacting protein 140 (RIP140), endogenous (mouse (endogenous in 3T3-L1)); assay: co-IP; cytoplasmic fraction of differentiating adipocyte cultures, time course of differentiation
[4] = biological target: T2, double phospho-mimetic mutant RIP140 (D-CP) expressed in RIP140 null adipocytes (mouse) (UniProt Q8CBD1); assay: co-IP; RIP140 null adipocytes reconstituted with WT, D-CN or D-CP RIP140; association with endogenous 14-3-3 and PRMT1
T2 sequence: T1 sequence with S102E, S1003E

[5] = biological target: T3, wild type RIP140 re-expressed in RIP140 null adipocytes (mouse) (UniProt Q8CBD1); assay: as above
T3 sequence: T1 sequence

[6] = biological target: T1, Receptor interacting protein 140 (RIP140), endogenous (mouse (endogenous in 3T3-L1)); assay: co-IP; sequential IP: the RIP140/PRMT1 or RIP140/14-3-3 immuno-complex from differentiated adipocyte extracts was examined for the third partner
[7] = biological target: T1, Receptor interacting protein 140 (RIP140), endogenous (mouse (endogenous in 3T3-L1)); assay: co-IP; endogenous proteins in differentiated (8 day) 3T3-L1 adipocyte extracts; IP with antibodies to RIP140, 14-3-3 or PRMT1, protein G-agarose; 150 mM NaCl, 50 mM Tris-HCl pH 8.0, 0.2% NP-40, 0.1% SDS, 4°C overnight; cells untreated or treated with MAPK or PKC activators/inhibitors (PMA, calphostin C), or with siRNA to 14-3-3β or PRMT1
[8] = biological target: double constitutive negative mutant RIP140 (D-CN) expressed in RIP140 null adipocytes (mouse) (UniProt Q8CBD1); assay: co-IP; RIP140 null adipocytes reconstituted with WT, D-CN or D-CP RIP140; association with endogenous 14-3-3 and PRMT1

| binding [1] | binding [3] | binding [4] | binding [5] | binding [6] | binding [7] | binding [8] | Substance | binding [2] |
| --- | --- | --- | --- | --- | --- | --- | --- | --- |
| binds | no binding (only cytoplasmic fraction) | binds | binds | binds | binds | – | 14-3-3β, endogenous (mouse (endogenous in 3T3-L1)) | no binding (only PKCε knocked down by siRNA) |
| – | – | – | – | – | – | no binding | protein arginine methyl transferase 1 (PRMT1), endogenous (from UniProt Q9JIF0 1-371) (enzyme) | – |
